These are yes or no findings as the source states them, for the method shown. Binding calls can cover weak binding; strength is not graded here.
Biological target: GST-VAMP7 cytoplasmic domain (UniProt P70280)
Assay: pull-down + SEC; SNARE complex reconstitution: purified syntaxin7, syntaxin8, Vti1b and GSTVAMP7 mixed about 4:4:4:1, 16 hr, 4°C, 20 mM HEPES pH 7.4, 500 mM NaCl, 5 mM DTT; complexes isolated on glutathione-Sepharose, then Superdex S200; both purified

Chains of the proteins cited; added tags and fusions are not shown. Lines headed by an entry give the natural chain unless they say otherwise; changes in a name come on top. Residues count along the entry.
UniProt P70280, residues 2-188: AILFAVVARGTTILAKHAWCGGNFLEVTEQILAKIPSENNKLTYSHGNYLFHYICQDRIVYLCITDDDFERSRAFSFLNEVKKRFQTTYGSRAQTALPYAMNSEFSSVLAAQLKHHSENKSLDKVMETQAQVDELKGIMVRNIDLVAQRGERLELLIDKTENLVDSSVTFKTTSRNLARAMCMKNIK
UniProt O70439: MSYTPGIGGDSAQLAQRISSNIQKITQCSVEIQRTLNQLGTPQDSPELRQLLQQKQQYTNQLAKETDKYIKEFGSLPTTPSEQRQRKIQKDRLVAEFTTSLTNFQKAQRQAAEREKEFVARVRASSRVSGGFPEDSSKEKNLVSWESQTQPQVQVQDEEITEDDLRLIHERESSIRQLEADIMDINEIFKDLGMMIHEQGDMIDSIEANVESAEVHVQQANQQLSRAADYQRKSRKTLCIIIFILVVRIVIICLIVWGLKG
UniProt O88983: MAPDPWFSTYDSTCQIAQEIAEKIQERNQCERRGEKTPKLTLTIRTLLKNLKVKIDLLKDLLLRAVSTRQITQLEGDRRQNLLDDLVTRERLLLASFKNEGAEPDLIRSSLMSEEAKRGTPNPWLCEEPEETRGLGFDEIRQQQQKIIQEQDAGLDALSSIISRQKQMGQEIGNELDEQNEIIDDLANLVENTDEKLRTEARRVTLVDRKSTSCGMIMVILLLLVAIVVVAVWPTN

| binding | Substance |
| --- | --- |
| binds | Syntaxin7 (from UniProt O70439) |
| binds | Syntaxin8 (from UniProt O88983) |
